In publication PMC4096401:
Results are given in words; binding and its absence hold for the method and conditions named. Binding seen in cells or lysates may run through a third protein. Some entries that bind do so weakly or less than the wild type.

Biological target: T1, endothelial nitric oxide synthase (human (endogenous in HLMVEC)), P29474
T1 chain: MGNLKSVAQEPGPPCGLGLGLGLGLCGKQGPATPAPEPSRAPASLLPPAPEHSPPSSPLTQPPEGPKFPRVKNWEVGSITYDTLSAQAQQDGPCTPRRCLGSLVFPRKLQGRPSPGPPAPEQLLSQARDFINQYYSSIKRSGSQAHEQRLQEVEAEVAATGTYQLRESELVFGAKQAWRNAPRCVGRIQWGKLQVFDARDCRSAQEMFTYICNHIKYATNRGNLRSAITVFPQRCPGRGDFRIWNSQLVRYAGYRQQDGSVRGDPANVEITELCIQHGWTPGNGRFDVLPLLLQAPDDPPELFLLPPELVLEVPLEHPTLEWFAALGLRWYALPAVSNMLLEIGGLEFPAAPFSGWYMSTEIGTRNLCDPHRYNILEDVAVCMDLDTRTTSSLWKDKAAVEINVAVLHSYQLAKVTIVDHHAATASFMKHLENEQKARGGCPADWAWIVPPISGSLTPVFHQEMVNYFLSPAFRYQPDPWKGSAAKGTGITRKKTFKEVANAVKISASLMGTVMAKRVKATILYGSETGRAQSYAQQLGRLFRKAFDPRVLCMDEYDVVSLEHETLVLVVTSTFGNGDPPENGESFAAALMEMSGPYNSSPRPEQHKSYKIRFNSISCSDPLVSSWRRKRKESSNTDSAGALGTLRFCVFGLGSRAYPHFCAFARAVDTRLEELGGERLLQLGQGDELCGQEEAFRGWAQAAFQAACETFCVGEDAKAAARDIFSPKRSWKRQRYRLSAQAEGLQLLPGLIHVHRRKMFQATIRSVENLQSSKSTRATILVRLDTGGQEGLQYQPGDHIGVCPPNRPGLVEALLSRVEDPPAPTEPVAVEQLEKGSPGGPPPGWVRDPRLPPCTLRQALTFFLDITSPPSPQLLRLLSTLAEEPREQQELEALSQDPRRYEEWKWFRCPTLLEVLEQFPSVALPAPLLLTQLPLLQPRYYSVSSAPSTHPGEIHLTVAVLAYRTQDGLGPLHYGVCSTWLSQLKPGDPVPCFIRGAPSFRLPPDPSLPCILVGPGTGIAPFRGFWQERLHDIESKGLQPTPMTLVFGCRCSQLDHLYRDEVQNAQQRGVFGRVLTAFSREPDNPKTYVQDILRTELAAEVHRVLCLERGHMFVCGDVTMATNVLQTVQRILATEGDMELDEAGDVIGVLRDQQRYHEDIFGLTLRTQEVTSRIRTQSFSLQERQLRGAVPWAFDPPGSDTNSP
Assay: co-IP; anti-eNOS immunoprecipitation from HLMVEC lysates (20 mM Tris-HCl pH 7.4, 1% Triton X-100, 100 mM NaCl), 2 h at 4 °C, protein A/G agarose; blots for hsp90 and caveolin-1; cells treated with or without LLO (250 ng/ml, 30 min); non-immune IgG as control
Settings: remark: other sources report otherwise

binding: binds
B1: caveolin-1, Q03135 1-178 (protein)
chain: MSGGKYVDSEGHLYTVPIREQGNIYKPNNKAMADELSEKQVYDAHTKEIDLVNRDPKHLNDDVVKIDFEDVIAEPEGTHSFDGIWKASFTTFTVTKYWFYRLLSALFGIPMALIWGIYFAILSFLHIWAVVPCIKSFLIEIQCISRVYSIYVHTVCDPLFEAVGKIFSNVRINLQKEI
